Source: publication doi:10.1101/2025.04.22.650084
Where two headings read alike, the source gives them in different places. These are yes or no findings as the source states them, for the method shown. For part of these data: In cells and extracts the contact can be indirect. Some entries that bind do so weakly or less than the wild type. Tags and fused reporters may be left off the sequences shown.

The chains behind the UniProt entries cited, without tags or fusion partners.
UniProt P84634: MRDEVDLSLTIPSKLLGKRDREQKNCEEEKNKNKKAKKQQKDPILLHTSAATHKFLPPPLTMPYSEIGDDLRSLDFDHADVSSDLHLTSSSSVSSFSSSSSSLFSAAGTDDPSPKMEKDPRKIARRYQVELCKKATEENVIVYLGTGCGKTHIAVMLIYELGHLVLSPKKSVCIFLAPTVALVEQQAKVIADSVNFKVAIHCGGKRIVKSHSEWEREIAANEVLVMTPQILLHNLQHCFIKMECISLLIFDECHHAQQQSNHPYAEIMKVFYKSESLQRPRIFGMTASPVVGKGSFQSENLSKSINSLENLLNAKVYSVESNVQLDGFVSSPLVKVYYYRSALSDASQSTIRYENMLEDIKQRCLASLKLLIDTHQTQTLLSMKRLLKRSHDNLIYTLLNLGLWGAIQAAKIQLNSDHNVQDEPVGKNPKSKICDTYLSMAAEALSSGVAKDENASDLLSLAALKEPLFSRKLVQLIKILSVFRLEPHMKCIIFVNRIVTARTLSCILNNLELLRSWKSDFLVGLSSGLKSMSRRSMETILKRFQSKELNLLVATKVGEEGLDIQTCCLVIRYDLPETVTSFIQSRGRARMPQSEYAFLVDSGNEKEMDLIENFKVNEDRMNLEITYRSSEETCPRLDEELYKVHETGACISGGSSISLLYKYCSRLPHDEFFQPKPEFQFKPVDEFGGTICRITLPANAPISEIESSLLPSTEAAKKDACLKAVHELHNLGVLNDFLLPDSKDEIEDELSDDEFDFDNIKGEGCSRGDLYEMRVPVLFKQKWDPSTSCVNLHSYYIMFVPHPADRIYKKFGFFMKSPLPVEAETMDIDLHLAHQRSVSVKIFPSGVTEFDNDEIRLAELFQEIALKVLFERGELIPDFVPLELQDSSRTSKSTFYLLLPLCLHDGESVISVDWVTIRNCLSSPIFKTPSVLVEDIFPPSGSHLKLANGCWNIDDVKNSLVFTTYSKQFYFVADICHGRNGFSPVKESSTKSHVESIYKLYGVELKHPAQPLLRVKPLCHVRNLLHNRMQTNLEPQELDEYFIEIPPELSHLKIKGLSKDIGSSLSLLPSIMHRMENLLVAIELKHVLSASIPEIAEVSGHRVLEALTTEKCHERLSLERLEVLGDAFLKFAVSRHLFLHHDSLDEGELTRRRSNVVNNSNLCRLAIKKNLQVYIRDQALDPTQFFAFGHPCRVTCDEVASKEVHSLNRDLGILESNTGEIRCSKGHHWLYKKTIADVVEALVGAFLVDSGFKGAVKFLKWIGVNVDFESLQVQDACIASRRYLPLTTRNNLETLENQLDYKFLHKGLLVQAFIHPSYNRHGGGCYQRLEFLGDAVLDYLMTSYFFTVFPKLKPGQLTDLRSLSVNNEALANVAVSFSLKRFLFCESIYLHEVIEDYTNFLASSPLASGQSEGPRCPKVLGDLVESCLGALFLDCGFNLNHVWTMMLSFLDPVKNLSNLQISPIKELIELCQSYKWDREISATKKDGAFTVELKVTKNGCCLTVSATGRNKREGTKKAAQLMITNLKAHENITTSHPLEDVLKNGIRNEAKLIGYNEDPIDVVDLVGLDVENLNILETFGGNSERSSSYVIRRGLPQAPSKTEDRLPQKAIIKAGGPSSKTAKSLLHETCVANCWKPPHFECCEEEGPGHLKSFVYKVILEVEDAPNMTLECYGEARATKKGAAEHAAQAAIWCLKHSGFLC
UniProt Q9LXW7: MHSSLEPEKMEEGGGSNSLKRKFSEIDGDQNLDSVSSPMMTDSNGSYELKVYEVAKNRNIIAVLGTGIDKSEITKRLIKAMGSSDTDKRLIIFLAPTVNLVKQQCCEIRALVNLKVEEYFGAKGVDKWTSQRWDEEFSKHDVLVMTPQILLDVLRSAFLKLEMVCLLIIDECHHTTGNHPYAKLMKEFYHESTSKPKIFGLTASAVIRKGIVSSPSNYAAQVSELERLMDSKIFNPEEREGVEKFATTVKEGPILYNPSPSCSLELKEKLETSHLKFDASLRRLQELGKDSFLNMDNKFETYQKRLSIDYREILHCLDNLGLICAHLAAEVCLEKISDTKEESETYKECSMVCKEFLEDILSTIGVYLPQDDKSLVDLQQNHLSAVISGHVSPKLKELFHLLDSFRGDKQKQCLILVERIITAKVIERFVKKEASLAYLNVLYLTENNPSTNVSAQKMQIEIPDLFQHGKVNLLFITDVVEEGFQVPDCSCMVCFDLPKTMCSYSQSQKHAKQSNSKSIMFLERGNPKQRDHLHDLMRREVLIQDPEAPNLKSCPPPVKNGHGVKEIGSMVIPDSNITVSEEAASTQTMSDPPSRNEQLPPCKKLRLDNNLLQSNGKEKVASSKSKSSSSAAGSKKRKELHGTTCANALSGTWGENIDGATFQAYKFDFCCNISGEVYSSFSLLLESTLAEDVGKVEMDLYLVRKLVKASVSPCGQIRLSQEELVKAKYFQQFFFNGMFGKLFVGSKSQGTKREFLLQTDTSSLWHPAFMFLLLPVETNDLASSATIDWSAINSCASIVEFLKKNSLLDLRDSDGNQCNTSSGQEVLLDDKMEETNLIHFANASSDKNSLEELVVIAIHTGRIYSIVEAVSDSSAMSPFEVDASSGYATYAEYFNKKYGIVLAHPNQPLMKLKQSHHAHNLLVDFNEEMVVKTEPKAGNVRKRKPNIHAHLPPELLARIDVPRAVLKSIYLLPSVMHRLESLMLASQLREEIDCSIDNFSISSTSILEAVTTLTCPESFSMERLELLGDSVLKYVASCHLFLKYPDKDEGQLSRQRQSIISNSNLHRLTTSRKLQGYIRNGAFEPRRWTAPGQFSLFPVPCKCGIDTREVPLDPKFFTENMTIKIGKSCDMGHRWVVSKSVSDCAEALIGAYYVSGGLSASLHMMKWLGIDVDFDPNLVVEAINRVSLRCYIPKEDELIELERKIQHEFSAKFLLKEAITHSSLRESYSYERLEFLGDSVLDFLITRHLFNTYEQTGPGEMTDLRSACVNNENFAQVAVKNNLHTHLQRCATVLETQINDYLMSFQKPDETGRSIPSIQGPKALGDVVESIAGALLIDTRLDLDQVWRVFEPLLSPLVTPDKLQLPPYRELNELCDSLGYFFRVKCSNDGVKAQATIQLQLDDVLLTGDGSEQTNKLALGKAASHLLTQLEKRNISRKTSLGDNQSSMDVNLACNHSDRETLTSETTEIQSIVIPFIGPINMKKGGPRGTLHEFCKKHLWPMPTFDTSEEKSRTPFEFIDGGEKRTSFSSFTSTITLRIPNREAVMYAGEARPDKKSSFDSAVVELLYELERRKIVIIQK

Assays:
[1] = molecular target: T1, U1-70k (full-length, yeast two-hybrid fusion) (Arabidopsis thaliana) (UniProt Q42404); assay: two-hybrid
T1 sequence: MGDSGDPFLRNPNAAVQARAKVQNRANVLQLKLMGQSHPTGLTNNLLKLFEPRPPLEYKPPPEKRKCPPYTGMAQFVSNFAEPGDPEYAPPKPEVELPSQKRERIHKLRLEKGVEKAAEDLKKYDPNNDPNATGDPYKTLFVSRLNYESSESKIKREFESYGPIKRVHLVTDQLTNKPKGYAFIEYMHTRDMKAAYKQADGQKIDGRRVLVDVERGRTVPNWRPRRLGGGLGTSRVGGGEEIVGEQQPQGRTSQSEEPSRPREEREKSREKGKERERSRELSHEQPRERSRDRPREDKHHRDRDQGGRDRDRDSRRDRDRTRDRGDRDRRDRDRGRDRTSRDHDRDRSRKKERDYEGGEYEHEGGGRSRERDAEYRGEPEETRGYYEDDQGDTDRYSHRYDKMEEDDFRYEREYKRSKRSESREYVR

[2] = molecular target: T1, U1-70k (full-length, yeast two-hybrid fusion) (Arabidopsis thaliana); assay: two-hybrid; remark: listed apart in the source
[3] = molecular target: T2, U1-70k (235-427aa) (yeast two-hybrid fusion) (Arabidopsis thaliana) (UniProt Q42404); assay: two-hybrid
T2 sequence: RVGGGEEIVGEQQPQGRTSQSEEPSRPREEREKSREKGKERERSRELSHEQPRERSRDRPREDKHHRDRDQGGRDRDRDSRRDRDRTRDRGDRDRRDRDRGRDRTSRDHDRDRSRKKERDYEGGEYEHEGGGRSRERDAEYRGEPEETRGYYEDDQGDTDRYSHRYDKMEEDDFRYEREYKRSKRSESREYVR

[4] = molecular target: T3, cYFP-U1-70k (Arabidopsis thaliana) (UniProt Q42404); assay: split reporter
T3 sequence: T1 sequence

[5] = molecular target: T3, cYFP-U1-70k (Arabidopsis thaliana); assay: split reporter; remark: listed apart in the source
[6] = molecular target: T4, SGS3 (Myc-tagged, immunoprecipitated with anti-Myc) (UniProt Q9LDX1); assay: co-IP
T4 sequence: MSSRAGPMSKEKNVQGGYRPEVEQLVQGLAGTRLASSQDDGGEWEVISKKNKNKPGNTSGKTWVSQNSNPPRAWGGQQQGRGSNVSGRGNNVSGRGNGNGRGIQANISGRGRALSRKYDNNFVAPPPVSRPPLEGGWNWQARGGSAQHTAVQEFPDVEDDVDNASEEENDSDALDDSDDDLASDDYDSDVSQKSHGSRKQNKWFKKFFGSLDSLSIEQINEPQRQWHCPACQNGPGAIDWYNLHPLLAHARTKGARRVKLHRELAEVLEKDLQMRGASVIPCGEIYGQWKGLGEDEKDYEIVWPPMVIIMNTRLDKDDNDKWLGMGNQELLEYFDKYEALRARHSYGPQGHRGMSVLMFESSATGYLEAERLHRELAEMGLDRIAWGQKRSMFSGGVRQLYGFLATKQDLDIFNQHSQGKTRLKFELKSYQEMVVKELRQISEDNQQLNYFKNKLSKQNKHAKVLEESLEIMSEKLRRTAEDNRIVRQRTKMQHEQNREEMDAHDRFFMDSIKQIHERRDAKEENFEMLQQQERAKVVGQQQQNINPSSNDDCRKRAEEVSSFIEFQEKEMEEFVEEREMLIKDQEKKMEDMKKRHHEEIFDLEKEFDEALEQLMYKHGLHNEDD

## DCL4 (yeast two-hybrid fusion) (from UniProt P84634 1-1702)
[1]
  binding: no binding

## DCL3 (yeast two-hybrid fusion) (from UniProt Q9LXW7 1-1580)
[1]
  binding: no binding

B1: U1-70k (full-length, yeast two-hybrid fusion) (protein, UniProt Q42404 1-427)
chain: T1 sequence
[2]
  binding: binds

B2: U1-70k (235-427aa) (yeast two-hybrid fusion) (domain or fragment, UniProt Q42404 235-427)
chain: T2 sequence
[3]
  binding: binds

B3: nYFP-SGS3 (protein, UniProt Q9LDX1 1-625)
chain: T4 sequence
[4]
  binding: binds
[5]
  binding: binds

B4: U1-70k (endogenous) (protein, UniProt Q42404 1-427)
chain: T1 sequence
[6]
  binding: binds

B5: RDR2 (yeast two-hybrid fusion) (protein, UniProt O82504 1-1133)
chain: MVSETTTNRSTVKISNVPQTIVADELLRFLELHLGEDTVFALEIPTTRDNWKPRDFARVQFTTLEVKSRAQLLSSQSKLLFKTHNLRLSEAYDDIIPRPVDPRKRLDDIVLTVGFPESDEKRFCALEKWDGVRCWILTEKRRVEFWVWESGDCYKIEVRFEDIIETLSCCVNGDASEIDAFLLKLKYGPKVFKRVTVHIATKFKSDRYRFCKEDFDFMWIRTTDFSGSKSIGTSTCFCLEVHNGSTMLDIFSGLPYYREDTLSLTYVDGKTFASAAQIVPLLNAAILGLEFPYEILFQLNALVHAQKISLFAASDMELIKILRGMSLETALVILKKLHQQSSICYDPVFFVKTQMQSVVKKMKHSPASAYKRLTEQNIMSCQRAYVTPSKIYLLGPELETANYVVKNFAEHVSDFMRVTFVEEDWSKLPANALSVNSKEGYFVKPSRTNIYNRVLSILGEGITVGPKRFEFLAFSASQLRGNSVWMFASNEKVKAEDIREWMGCFRKIRSISKCAARMGQLFSASRQTLIVRAQDVEQIPDIEVTTDGADYCFSDGIGKISLAFAKQVAQKCGLSHVPSAFQIRYGGYKGVIAVDRSSFRKLSLRDSMLKFDSNNRMLNVTRWTESMPCFLNREIICLLSTLGIEDAMFEAMQAVHLSMLGNMLEDRDAALNVLQKLSGENSKNLLVKMLLQGYAPSSEPYLSMMLRVHHESQLSELKSRCRILVPKGRILIGCMDEMGILEYGQVYVRVTLTKAELKSRDQSYFRKIDEETSVVIGKVVVTKNPCLHPGDIRVLDAIYEVHFEEKGYLDCIIFPQKGERPHPNECSGGDLDGDQFFVSWDEKIIPSEMDPPMDYAGSRPRLMDHDVTLEEIHKFFVDYMISDTLGVISTAHLVHADRDPEKARSQKCLELANLHSRAVDFAKTGAPAEMPYALKPREFPDFLERFEKPTYISESVFGKLYRAVKSSLAQRKPEAESEDTVAYDVTLEEAGFESFIETAKAHRDMYGEKLTSLMIYYGAANEEEILTGILKTKEMYLARDNRRYGDMKDRITLSVKDLHKEAMGWFEKSCEDEQQKKKLASAWYYVTYNPNHRDEKLTFLSFPWIVGDVLLDIKAENAQRQSVEEKTSGLVSI
[2]
  binding: no binding

B6: RDR6 (RNA-dependent RNA polymerase 6, yeast two-hybrid fusion) (protein, UniProt Q9SG02 1-1196)
chain: MGSEGNMKKSVVTQVSIGGFGESTTAKQLTDYLEDEVGIVWRCRLKTSWTPPGSYPNFEIADTSNIPSIDEYKKVEPHAFVHFAVFESAGRAMDAAGQCNLILDGQPLKVSLGPKNPYSLNQRRRTTVPYKLAGITLEIGTLVSRDDFFVSWRAEGVDFLVDPFDNTCKFCFRKSTAFSFKDAVMHAVINCDYKLELLVRDIQTVRQYKTLHGFVLILQLASSPRVWYRTADDDIYDTVPGDLLDDDDPWIRTTDFTQVGAIGRCHSYRVLISPRYENKLRTALDYFRMRRVQEERVRWPPRIRNEPCFGEPVSDHFFCIHHKEGISFEIMFLVNSVLHRGVFNQFQLTERFFDLLRNQPKDVNIASLKHLCTYKRPVFDAYKRLKLVQEWIQKNPKLLGSHEQSEDISEIRRLVITPTRAYCLPPEVELSNRVLRRYKAVAERFLRVTFMDESMQTINSNVLSYFVAPIVKDLTSSSFSQKTYVFKRVKSILTDGFKLCGRKYSFLAFSANQLRDRSAWFFAEDGKTRVSDIKTWMGKFKDKNVAKCAARMGLCFSSTYATVDVMPHEVDTEVPDIERNGYVFSDGIGTITPDLADEVMEKLKLDVHYSPCAYQIRYAGFKGVVARWPSKSDGIRLALRDSMKKFFSKHTILEICSWTRFQPGFLNRQIITLLSVLGVPDEIFWDMQESMLYKLNRILDDTDVAFEVLTASCAEQGNTAAIMLSAGFKPKTEPHLRGMLSSVRIAQLWGLREKSRIFVTSGRWLMGCLDEAGILEHGQCFIQVSKPSIENCFSKHGSRFKETKTDLEVVKGYVAIAKNPCLHPGDVRILEAVDVPQLHHMYDCLIFPQKGDRPHTNEASGSDLDGDLYFVAWDQKLIPPNRKSYPAMHYDAAEEKSLGRAVNHQDIIDFFARNLANEQLGTICNAHVVHADRSEYGAMDEECLLLAELAATAVDFPKTGKIVSMPFHLKPKLYPDFMGKEDYQTYKSNKILGRLYRRVKEVYDEDAEASSEESTDPSAIPYDAVLEIPGFEDLIPEAWGHKCLYDGQLIGLLGQYKVQKEEEIVTGHIWSMPKYTSKKQGELKERLKHSYNSLKKEFRKVFEETIPDHENLSEEEKNILYEKKASAWYHVTYHPEWVKKSLELQDPDESSHAAMLSFAWIAADYLARIKIRSREMGSIDSAKPVDSLAKFLAQRL
[2]
  binding: no binding
